PubChem BioAssay AID2729 (National Center for Advancing Translational Sciences (NCATS), 2010)
Inconclusive results, whose numbers are uncertain, are shown with a selection of clear calls. A potency beside an inconclusive call is a rough fit, not a confirmed value. Active and inactive are the calls of the source. The call rests on the fitted dose curve; in most records, active means well fitted inhibition curve with a large enough effect; inconclusive means small, poorly fitted or top-dose-only effect, or effect the other way; inactive means flat fitted curve, though single readings scatter.

Test: High Content Assay for Compounds that inhibit the Assembly of the Perinucleolar Compartment: WI-38 Cytotoxicity
Conditions: WI-38 normal lung fibroblasts, ATPLite luminescence ATP viability, 24 h; activity change, negative = cytotoxicity: at 46.1 µM (top of the series)
Description: High Content Assay for Compounds that inhibit the Assembly of the Perinucleolar Compartment
NIH Chemical Genomics Center [NCGC]
NIH Molecular Libraries Probe Centers Network [MLPCN]
Assay Submitter (PI): Sui Huang, Northwestern University, Feinberg School of Medicine, Cell and Molecular Biology, Chicago, Illinois.
The perinucleolar compartment (PNC) is a non-membrane-bound nuclear subdomain that is associated with but structurally distinct from the nucleolus. The PNC is a heritable trait, in which the number of PNCs per cell in daughter cells often mimics that of their mother cells. The PNC is heterogeneous in shape, is stable through interphase, disassembles during mitosis, and reassembles in early G1. The PNC is concentrated with newly synthesized RNA polymerase III (pol III) RNAs (MRP RNA, RNAse P H1 RNA, hY RNAs[hY1, 2, 5], Alu RNA, and SRP [7SL] RNA) and RNA binding proteins (nucleolin, PTB, CUG-BP, KSRP, Raver1, Raver2, and Rod).
Extensive in vitro studies have shown that the PNC is unique to tumor cells and preferentially forms in tumor cells derived from solid tissues. Examination of cancer cell lines from various origins and malignant capacities has shown that PNC prevalence correlates with the malignancy of tumors and has the potential to be developed as a pan-cancer prognostic marker.
Although the PNC is associated with a DNA locus and a handful of components have been identified, much remains to be investigated regarding the structure and function of the PNC and its mechanistic link to cancer. We have previously shown that PNC prevalence reduction is a valid strategy to identify compounds that can be used to study the structure and function of the PNC. It is necessary, however, to create a screening platform that is able to test a large number of compounds in an automated fashion. Here we report the development and robustness of an automated whole-cell phenotypic image-based screening assay that is capable of identifying such compounds.
We conducted a followup assay to measure the effect of the lead candidates on cell health in a non-metastatic line, WI-38, by measuring ATP levels (ATPLite).
1. Cells at a density of 75-90% confluency in T175 flasks were harvested using 7 ml TrypLE Express cell dissociation reagent. After dissociation (5 minutes room temperature incubation) 10 ml of complete media was added to the TrypLE/cell suspension. The liquid was transferred to a 50 ml Conical tube and cells were pelleted at 1000 RPM for 5 min. Supernatant was removed and cells were resuspended to a final density of 150-200 cells/ul in complete media.
2. Cells were plated in 5 ul volume (2000 cells/well) into 1536 well White solid bottom plates and allowed to recover and adhere at 37 C in a humidified 5% CO2 incubator for 4 hours.
3. After 4 hour incubation, compound libraries (23 nl of 12.5 uM in columns 5-48) were transferred to the plates in duplicate using a 1536 well pintool. Camptothecin positive control (59 uM final) was added to column 2 and 1:3 dilutions of camptothecin was added to column 3. DMSO negative controls were present in columns 1 and 4.
4. After a 24 hour incubation in the 37 C incubator, all wells were treated with 3 ul of ATPLite reagent using a multidrop combi dispenser (ThermoFisher). Bubbles that formed during dispensing were removed by spinning the plates for 1 minutre at 1500 RPM on a table top centrifuge.
5. Luminescencent signal was detected on a Viewlux CCD based imager (PerkinElmer) with a clear filter and a 30 second integration time.
The WI-38 normal human fetal lung fibroblast cell line was provided by Sui Huang of Northwestern University. The media and cell culture reagents were purchased from Invitrogen (Carlsbad, CA), ATPLite came from PerkinElmer.
In the case of O=C(N/N=C/c1ccccc1O)c1cccc(C(F)(F)F)c1, the Potency is reported as “inactive”.
With CC(=O)N(C)C1=C(N2CCOCC2)C(=O)c2ccccc2C1=O the Potency was inconclusive: 35.5 µM [inhibitor, partial curve, poor fit].
In the case of O=C1C(=O)c2ccc(-c3ccccc3)cc2-c2ccccc21, the activity change, negative = cytotoxicity is reported as inconclusive: -86.3% [activator].
With C=CCN=c1scc(-c2ccccc2)n1/N=C/c1ccccn1 the Potency was inconclusive: 31.6 µM [inhibitor, partial curve, poor fit].
With O=S(=O)(Nc1cc(Sc2cccc3cccnc23)c(O)c2ccccc12)c1ccc(F)cc1 the Potency was inconclusive: 35.5 µM [inhibitor, single point].
With COc1ccc(Cc2nnc(N/N=C/c3ccc(O)cc3)[nH]c2=O)cc1OC the Potency was inconclusive: 14.1 µM [inhibitor, full curve, poor fit].
For CCOC(=O)Cn1c(-c2nonc2NC(=O)c2ccccc2F)nc2ccccc21, the Potency was inconclusive: 31.6 µM [inhibitor, single point].
In the case of COc1ccc2nc3sc(C(=O)NCCCN4CCc5ccccc5C4)cc3cc2c1, the Potency is reported as inconclusive: 31.6 µM [inhibitor, partial curve, poor fit].
With O=C(NC(CSCc1ccccc1)C(=O)N/N=C/c1ccc(O)cc1O)c1ccc([N+](=O)[O-])cc1 (stereo not given) the Potency was “inactive”.
With CNC1=C(N(C(C)=O)c2ccc(Br)cc2)C(=O)c2ccccc2C1=O the Potency was inconclusive: 35.5 µM [inhibitor, single point].
For Cc1cccc(NC2=C/C(=N/S(=O)(=O)c3cccs3)c3ccccc3C2=O)c1, the Potency was inconclusive: 31.6 µM [inhibitor, single point].
In the case of Cc1cccc(/C=C(\c2nc3ccccc3[nH]2)S(=O)(=O)c2ccccc2)c1, the Potency is reported as inconclusive: 35.5 µM [inhibitor, single point].
With Nc1ccc2c(c1)C(=O)C(=O)c1ccccc1-2 the Potency was active: 28.2 µM.
With Cc1cc(C(=O)Cn2nnc3ccccc3c2=O)c(C)n1-c1ccccc1F the Potency was active: 14.1 µM.
With CCc1ccc(S(=O)(=O)/N=C2/C=C(Sc3ncn[nH]3)C(=O)c3ccccc32)cc1 the Potency was inconclusive: 35.5 µM [inhibitor, single point].
In the case of Cc1c(NC(=O)COC(=O)c2cc(-c3ccc(-c4ccccc4)cc3)nc3ccccc23)c(=O)n(-c2ccccc2)n1C, the Potency is reported as active: 7.94 µM.
In the case of CCN(CC)C(=S)SSC(=S)N(CC)CC, the Potency is reported as inconclusive: 12.6 µM [activator, partial curve].
With C/C(=N/OCO/N=C(/C)c1ccc(F)cc1)c1ccc(F)cc1 the Potency was “inactive”.
In the case of COc1cc(C(=O)Oc2ccccc2/C=N/NC(=O)c2ccc(Cl)cc2)cc(OC)c1OC, the Potency is reported as inconclusive: 25.1 µM [inhibitor, partial curve, poor fit].
For Cc1sc2nc(C3CC3)nc(SCC(=O)N3c4ccccc4CC3C)c2c1C (stereo not given), the Potency was “inactive”.
For O=c1[nH]cnc2c1C(c1ccccc1[N+](=O)[O-])c1c(nc[nH]c1=O)O2, the Potency was inconclusive: 11.2 µM [activator, partial curve, poor fit].
With COc1ccc(-n2c(SC(C)C(=O)Nc3ncc(Cl)cc3Cl)nc3ccccc32)cc1 (stereo not given) the Potency was inconclusive: 20 µM [inhibitor, partial curve, poor fit].
With CN(C)c1ccc(N=Nc2ccccc2C(=O)OCC(=O)NC2CCCC2)cc1 the Potency was inconclusive: 31.6 µM [inhibitor, single point].
In the case of O=C(Nc1ccc(NC(=O)C2CC2)cn1)c1ccccc1Cl, the Potency is reported as inconclusive: 20 µM [inhibitor, partial curve, poor fit].
For CCCCN(C(=O)Nc1ccc(Cl)cc1)C1CCN(C(C)=O)CC1, the Potency was “inactive”.
